Holding throughout (experiment): tandem affinity chromatography + SEC; subunits co-overexpressed in budding yeast; complexes purified from interphase cell extracts by the His12 tag on Brn1 and the triple StrepII tag on Smc4, followed by a gel filtration step
On the technique in general: In gel filtration, larger molecules generally elute earlier.

Experiment [1] has as its target T1, Smc4 (S. cerevisiae), Q12267.
T1 chain: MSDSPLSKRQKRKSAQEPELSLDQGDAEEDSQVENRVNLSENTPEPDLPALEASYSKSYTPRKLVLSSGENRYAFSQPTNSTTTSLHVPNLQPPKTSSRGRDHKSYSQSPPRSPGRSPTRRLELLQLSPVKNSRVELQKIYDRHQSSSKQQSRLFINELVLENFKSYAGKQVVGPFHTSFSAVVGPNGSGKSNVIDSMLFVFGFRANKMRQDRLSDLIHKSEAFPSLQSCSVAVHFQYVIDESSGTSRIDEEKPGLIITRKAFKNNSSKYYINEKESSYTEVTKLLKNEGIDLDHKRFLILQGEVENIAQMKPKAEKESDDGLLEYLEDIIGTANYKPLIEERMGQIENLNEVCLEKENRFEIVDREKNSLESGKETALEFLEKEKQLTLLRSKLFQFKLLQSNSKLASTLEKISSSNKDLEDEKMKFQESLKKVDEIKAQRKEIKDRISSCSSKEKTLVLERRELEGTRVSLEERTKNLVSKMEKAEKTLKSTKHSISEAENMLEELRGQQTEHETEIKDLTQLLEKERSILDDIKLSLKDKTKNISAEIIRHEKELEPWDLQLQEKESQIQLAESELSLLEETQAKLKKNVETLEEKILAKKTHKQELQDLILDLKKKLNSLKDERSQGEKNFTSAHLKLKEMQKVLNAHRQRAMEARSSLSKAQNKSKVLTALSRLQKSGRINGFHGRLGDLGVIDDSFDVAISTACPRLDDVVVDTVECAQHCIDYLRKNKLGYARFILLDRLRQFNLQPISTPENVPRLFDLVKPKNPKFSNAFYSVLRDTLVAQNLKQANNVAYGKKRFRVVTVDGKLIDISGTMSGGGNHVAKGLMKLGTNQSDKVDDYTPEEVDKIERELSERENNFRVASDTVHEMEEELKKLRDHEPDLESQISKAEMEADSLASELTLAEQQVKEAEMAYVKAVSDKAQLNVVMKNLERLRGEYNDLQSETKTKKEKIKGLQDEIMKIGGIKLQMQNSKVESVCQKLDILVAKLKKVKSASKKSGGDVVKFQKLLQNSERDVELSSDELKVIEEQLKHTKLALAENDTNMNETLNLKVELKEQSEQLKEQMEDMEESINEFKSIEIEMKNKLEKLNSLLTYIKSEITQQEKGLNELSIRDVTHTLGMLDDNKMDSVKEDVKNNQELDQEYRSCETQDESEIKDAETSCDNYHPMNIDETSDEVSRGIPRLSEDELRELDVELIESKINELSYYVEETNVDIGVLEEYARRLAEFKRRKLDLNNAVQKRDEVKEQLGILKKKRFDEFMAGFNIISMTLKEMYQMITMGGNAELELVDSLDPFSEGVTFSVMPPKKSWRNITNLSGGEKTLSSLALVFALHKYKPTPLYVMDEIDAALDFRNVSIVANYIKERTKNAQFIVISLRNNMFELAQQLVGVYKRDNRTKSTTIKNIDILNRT
Conditions: remark: other sources report otherwise.

A further experiment has as its target T2, Brn1 (S. cerevisiae) (UniProt P38170).
T2 sequence: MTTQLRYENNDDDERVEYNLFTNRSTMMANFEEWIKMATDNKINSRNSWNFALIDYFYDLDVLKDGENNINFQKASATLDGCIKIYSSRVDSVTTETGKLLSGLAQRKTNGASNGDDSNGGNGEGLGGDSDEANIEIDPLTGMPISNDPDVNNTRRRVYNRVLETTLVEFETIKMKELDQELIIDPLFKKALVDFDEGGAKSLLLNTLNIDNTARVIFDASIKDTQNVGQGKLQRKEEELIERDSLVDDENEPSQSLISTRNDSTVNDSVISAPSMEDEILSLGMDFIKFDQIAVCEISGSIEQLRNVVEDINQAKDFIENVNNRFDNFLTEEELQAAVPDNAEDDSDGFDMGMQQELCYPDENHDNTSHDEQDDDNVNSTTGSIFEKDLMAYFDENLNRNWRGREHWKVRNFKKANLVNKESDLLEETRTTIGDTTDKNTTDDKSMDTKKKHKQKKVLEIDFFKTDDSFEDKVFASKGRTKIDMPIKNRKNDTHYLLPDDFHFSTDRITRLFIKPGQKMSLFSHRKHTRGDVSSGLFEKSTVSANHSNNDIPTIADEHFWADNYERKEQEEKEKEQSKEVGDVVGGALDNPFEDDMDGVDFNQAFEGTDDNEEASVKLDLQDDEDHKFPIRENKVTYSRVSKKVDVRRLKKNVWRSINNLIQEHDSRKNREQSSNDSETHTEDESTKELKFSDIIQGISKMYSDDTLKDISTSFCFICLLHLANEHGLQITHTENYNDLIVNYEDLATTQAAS

Experiment [2] has as its target T3, Brn1 K409D, R411D, K414D, K451D, K452D, K456D, K457D (S. cerevisiae) (UniProt P38170).
T3 sequence: T2 sequence with K409D, R411D, K414D, K451D, K452D, K456D, K457D

In a further experiment the target is T4, Smc4 (S. cerevisiae) (UniProt Q12267).
T4 sequence: T1 chain

Where a chain is given by its changes, count along the chain named. These are yes or no findings as the source states them, for the method shown. Some entries that bind do so weakly or less than the wild type.

B1: Ycg1, Q06680 1-1035 (protein)
chain: MQDPDGIDINTKIFNSVAEVFQKAQGSYAGHRKHIAVLKKIQSKAVEQGYEDAFNFWFDKLVTKILPLKKNEIIGDRIVKLVAAFIASLERELILAKKQNYKLTNDEEGIFSRFVDQFIRHVLRGVESPDKNVRFRVLQLLAVIMDNIGEIDESLFNLLILSLNKRIYDREPTVRIQAVFCLTKFQDEEQTEHLTELSDNEENFEATRTLVASIQNDPSAEVRRAAMLNLINDNNTRPYILERARDVNIVNRRLVYSRILKSMGRKCFDDIEPHIFDQLIEWGLEDRELSVRNACKRLIAHDWLNALDGDLIELLEKLDVSRSSVCVKAIEALFQSRPDILSKIKFPESIWKDFTVEIAFLFRAIYLYCLDNNITEMLEENFPEASKLSEHLNHYILLRYHHNDISNDSQSHFDYNTLEFIIEQLSIAAERYDYSDEVGRRSMLTVVRNMLALTTLSEPLIKIGIRVMKSLSINEKDFVTMAIEIINDIRDDDIEKQEQEEKIKSKKINRRNETSVDEEDENGTHNDEVNEDEEDDNISSFHSAVENLVQGNGNVSESDIINNLPPEKEASSATIVLCLTRSSYMLELVNTPLTENILIASLMDTLITPAVRNTAPNIRELGVKNLGLCCLLDVKLAIDNMYILGMCVSKGNASLKYIALQVIVDIFSVHGNTVVDGEGKVDSISLHKIFYKVLKNNGLPECQVIAAEGLCKLFLADVFTDDDLFETLVLSYFSPINSSNEALVQAFAFCIPVYCFSHPAHQQRMSRTAADILLRLCVLWDDLQSSVIPEVDREAMLKPNIIFQQLLFWTDPRNLVNQTGSTKKDTVQLTFLIDVLKIYAQIEKKEIKKMIITNINAIFLSSEQDYSTLKELLEYSDDIAENDNLDNVSKNALDKLRNNLNSLIEEINERSETQTKDENNTANDQYSSILGNSFNKSSNDTIEHAADITDGNNTELTKTTVNISAVDNTTEQSNSRKRTRSEAEQIDTSKNLENMSIQDTSTVAKNVSFVLPDEKSDAMSIDEEDKDSESFSEVC
Turning to B1, the binding entry in experiment [1] is reported as “binds”.

B2: Smc2 (protein, UniProt P38989 1-1170)
chain: MKVEELIIDGFKSYATRTVITDWDPQFNAITGLNGSGKSNILDAICFVLGIASMSTVRASSLQDLIYKRGQAGVTKASVTIVFDNTDKSNSPIGFTNSPQISVTRQVVLGGTSKYLINGHRAPQQSVLQLFQSVQLNINNPNFLIMQGKITKVLNMKPSEILSLIEEAAGTKMFEDRREKAERTMSKKETKLQENRTLLTEEIEPKLEKLRNEKRMFLEFQSTQTDLEKTERIVVSYEYYNIKHKHTSIRETLENGETRMKMLNEFVKKTSEEIDSLNEDVEEIKLQKEKELHKEGTISKLENKENGLLNEISRLKTSLSIKVENLNDTTEKSKALESEIASSSAKLIEKKSAYANTEKDYKMVQEQLSKQRDLYKRKEELVSTLTTGISSTGAADGGYNAQLAKAKTELNEVSLAIKKSSMKMELLKKELLTIEPKLKEATKDNELNVKHVKQCQETCDKLRARLVEYGFDPSRIKDLKQREDKLKSHYYQTCKNSEYLKRRVTNLEFNYTKPYPNFEASFVHGVVGQLFQIDNDNIRYATALQTCAGGRLFNVVVQDSQTATQLLERGRLRKRVTIIPLDKIYTRPISSQVLDLAKKIAPGKVELAINLIRFDESITKAMEFIFGNSLICEDPETAKKITFHPKIRARSITLQGDVYDPEGTLSGGSRNTSESLLVDIQKYNQIQKQIETIQADLNHVTEELQTQYATSQKTKTIQSDLNLSLHKLDLAKRNLDANPSSQIIARNEEILRDIGECENEIKTKQMSLKKCQEEVSTIEKDMKEYDSDKGSKLNELKKELKLLAKELEEQESESERKYDLFQNLELETEQLSSELDSNKTLLHNHLKSIESLKLENSDLEGKIRGVEDDLVTVQTELNEEKKRLMDIDDELNELETLIKKKQDEKKSSELELQKLVHDLNKYKSNTNNMEKIIEDLRQKHEFLEDFDLVRNIVKQNEGIDLDTYRERSKQLNEKFQELRKKVNPNIMNMIENVEKKEAALKTMIKTIEKDKMKIQETISKLNEYKRETLVKTWEKVTLDFGNIFADLLPNSFAKLVPCEGKDVTQGLEVKVKLGNIWKESLIELSGGQRSLIALSLIMALLQFRPAPMYILDEVDAALDLSHTQNIGHLIKTRFKGSQFIVVSLKEGMFANANRVFRTRFQDGTSVVSIM
On to B2, for which the binding result (with Brn1 (S. cerevisiae); in experiment [2]; with Smc4 (S. cerevisiae)) was “binds” each time.

The record behind these values is publication PMC5709735, “Real‐time detection of condensin‐driven DNA compaction reveals a multistep binding mechanism” (The EMBO Journal, 2017).
